Experimental data reported in PMC3026010.
No constants are given. Whether binding was seen depends on the method and setting. Binding seen in cells or lysates may run through a third protein. For some assays here: Binding calls can cover weak binding; strength is not graded here. For some assays here: Sequences can lack the tags named with a protein.

T1: Myc3-tagged LZAP (full coding sequence) (human) (UniProt Q96JB5)
T1 sequence: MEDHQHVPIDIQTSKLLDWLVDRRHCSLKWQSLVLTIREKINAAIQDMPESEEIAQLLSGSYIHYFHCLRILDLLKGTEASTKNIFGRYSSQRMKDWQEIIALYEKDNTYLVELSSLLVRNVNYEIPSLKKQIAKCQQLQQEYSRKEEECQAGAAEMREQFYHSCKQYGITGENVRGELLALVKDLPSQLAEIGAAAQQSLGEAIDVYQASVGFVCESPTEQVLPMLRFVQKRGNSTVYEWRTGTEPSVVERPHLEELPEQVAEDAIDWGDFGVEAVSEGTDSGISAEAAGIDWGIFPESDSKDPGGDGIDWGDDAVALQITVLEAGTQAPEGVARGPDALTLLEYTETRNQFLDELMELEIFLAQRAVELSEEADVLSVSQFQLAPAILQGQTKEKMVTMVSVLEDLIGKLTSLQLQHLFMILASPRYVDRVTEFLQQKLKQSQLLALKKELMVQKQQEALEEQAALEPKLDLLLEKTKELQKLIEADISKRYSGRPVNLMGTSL


Legend:
[1] = molecular target: T1, Myc3-tagged LZAP (full coding sequence) (human); test: co-IP; U2OS cells transfected with tagged LZAP (whole or truncations) and/or Flag-p38; 0.5% NP-40 lysis buffer; immunoprecipitation with anti-Myc, anti-p38 or anti-Flag, protein A or G sepharose; immunoblot for LZAP, Myc or p38; some experiments after UV
[2] = molecular target: Flag-tagged p38α (full length); test: as above
[3] = molecular target: Flag-tagged p38α (full length); test: co-IP; U2OS cells transfected with Flag-p38 and increasing amounts of myc-LZAP, UV treated; immunoprecipitation of Flag-p38; immunoblot for endogenous Wip1
[4] = molecular target: Flag-tagged p38α (full length); test: co-IP; U2OS cells transfected with Flag-p38 without myc-LZAP, UV treated; immunoprecipitation of Flag-p38; immunoblot for endogenous Wip1
[5] = molecular target: endogenous p38 (human (endogenous in U2OS and MCF7)); test: co-IP; U2OS cells transfected with tagged LZAP (whole or truncations) and/or Flag-p38; 0.5% NP-40 lysis buffer; immunoprecipitation with anti-Myc, anti-p38 or anti-Flag, protein A or G sepharose; immunoblot for LZAP, Myc or p38; some experiments after UV

| Molecule | binding [2] | other results |
| --- | --- | --- |
| Flag-tagged p38α (full length) (enzyme) |  | binding [1]: binds |
| Myc3-tagged LZAP truncation residues 112-358 (domain or fragment, UniProt Q96JB5 112-358) VELSSLLVRNVNYEIPSLKKQIAKCQQLQQEYSRKEEECQAGAAEMREQFYHSCKQYGITGENVRGELLALVKDLPSQLAEIGAAAQQSLGEAIDVYQASVGFVCESPTEQVLPMLRFVQKRGNSTVYEWRTGTEPSVVERPHLEELPEQVAEDAIDWGDFGVEAVSEGTDSGISAEAAGIDWGIFPESDSKDPGGDGIDWGDDAVALQITVLEAGTQAPEGVARGPDALTLLEYTETRNQFLDELM | binds |  |
| Myc3-tagged LZAP truncation αα 201-358 (domain or fragment, UniProt Q96JB5 201-358) LGEAIDVYQASVGFVCESPTEQVLPMLRFVQKRGNSTVYEWRTGTEPSVVERPHLEELPEQVAEDAIDWGDFGVEAVSEGTDSGISAEAAGIDWGIFPESDSKDPGGDGIDWGDDAVALQITVLEAGTQAPEGVARGPDALTLLEYTETRNQFLDELM | no binding |  |
| Myc3-tagged LZAP truncation αα 1-111 (domain or fragment, UniProt Q96JB5 1-111) MEDHQHVPIDIQTSKLLDWLVDRRHCSLKWQSLVLTIREKINAAIQDMPESEEIAQLLSGSYIHYFHCLRILDLLKGTEASTKNIFGRYSSQRMKDWQEIIALYEKDNTYL | no binding |  |
| wild-type p53-induced phosphatase 1 (Wip1), endogenous (enzyme, UniProt O15297 1-605) MAGLYSLGVSVFSDQGGRKYMEDVTQIVVEPEPTAEEKPSPRRSLSQPLPPRPSPAALPGGEVSGKGPAVAAREARDPLPDAGASPAPSRCCRRRSSVAFFAVCDGHGGREAAQFAREHLWGFIKKQKGFTSSEPAKVCAAIRKGFLACHLAMWKKLAEWPKTMTGLPSTSGTTASVVIIRGMKMYVAHVGDSGVVLGIQDDPKDDFVRAVEVTQDHKPELPKERERIEGLGGSVMNKSGVNRVVWKRPRLTHNGPVRRSTVIDQIPFLAVARALGDLWSYDFFSGEFVVSPEPDTSVHTLDPQKHKYIILGSDGLWNMIPPQDAISMCQDQEEKKYLMGEHGQSCAKMLVNRALGRWRQRMLRADNTSAIVICISPEVDNQGNFTNEDELYLNLTDSPSYNSQETCVMTPSPCSTPPVKSLEEDPWPRVNSKDHIPALVRSNAFSENFLEVSAEIARENVQGVVIPSKDPEPLEENCAKALTLRIHDSLNNSLPIGLVPTNSTNTVMDQKNLKMSTPGQMKAQEIERTPPTNFKRTLEESNSGPLMKKHRRNGLSRSSGAQPASLPTTSQRKNSVKLTMRRRLRGQKKIGNPLLHQHRKTVCVC |  | binding [3]: binds; binding [4]: no binding (only without expressed LZAP) |
| Myc3-tagged LZAP truncation αα 1-303 (domain or fragment, UniProt Q96JB5 1-303) MEDHQHVPIDIQTSKLLDWLVDRRHCSLKWQSLVLTIREKINAAIQDMPESEEIAQLLSGSYIHYFHCLRILDLLKGTEASTKNIFGRYSSQRMKDWQEIIALYEKDNTYLVELSSLLVRNVNYEIPSLKKQIAKCQQLQQEYSRKEEECQAGAAEMREQFYHSCKQYGITGENVRGELLALVKDLPSQLAEIGAAAQQSLGEAIDVYQASVGFVCESPTEQVLPMLRFVQKRGNSTVYEWRTGTEPSVVERPHLEELPEQVAEDAIDWGDFGVEAVSEGTDSGISAEAAGIDWGIFPESDSK | binds |  |
| Myc3-tagged LZAP (full coding sequence) (protein, UniProt Q96JB5 1-506) MEDHQHVPIDIQTSKLLDWLVDRRHCSLKWQSLVLTIREKINAAIQDMPESEEIAQLLSGSYIHYFHCLRILDLLKGTEASTKNIFGRYSSQRMKDWQEIIALYEKDNTYLVELSSLLVRNVNYEIPSLKKQIAKCQQLQQEYSRKEEECQAGAAEMREQFYHSCKQYGITGENVRGELLALVKDLPSQLAEIGAAAQQSLGEAIDVYQASVGFVCESPTEQVLPMLRFVQKRGNSTVYEWRTGTEPSVVERPHLEELPEQVAEDAIDWGDFGVEAVSEGTDSGISAEAAGIDWGIFPESDSKDPGGDGIDWGDDAVALQITVLEAGTQAPEGVARGPDALTLLEYTETRNQFLDELMELEIFLAQRAVELSEEADVLSVSQFQLAPAILQGQTKEKMVTMVSVLEDLIGKLTSLQLQHLFMILASPRYVDRVTEFLQQKLKQSQLLALKKELMVQKQQEALEEQAALEPKLDLLLEKTKELQKLIEADISKRYSGRPVNLMGTSL | binds | binding [5]: binds |

Further lines, with some results ahead:

| binding [2] | Molecule | other results |
| --- | --- | --- |
| binds | Myc3-tagged LZAP truncation αα 329-506 (domain or fragment, UniProt Q96JB5 329-506) QAPEGVARGPDALTLLEYTETRNQFLDELMELEIFLAQRAVELSEEADVLSVSQFQLAPAILQGQTKEKMVTMVSVLEDLIGKLTSLQLQHLFMILASPRYVDRVTEFLQQKLKQSQLLALKKELMVQKQQEALEEQAALEPKLDLLLEKTKELQKLIEADISKRYSGRPVNLMGTSL |  |
| binds | untagged LZAP (protein, UniProt Q96JB5 1-506) MEDHQHVPIDIQTSKLLDWLVDRRHCSLKWQSLVLTIREKINAAIQDMPESEEIAQLLSGSYIHYFHCLRILDLLKGTEASTKNIFGRYSSQRMKDWQEIIALYEKDNTYLVELSSLLVRNVNYEIPSLKKQIAKCQQLQQEYSRKEEECQAGAAEMREQFYHSCKQYGITGENVRGELLALVKDLPSQLAEIGAAAQQSLGEAIDVYQASVGFVCESPTEQVLPMLRFVQKRGNSTVYEWRTGTEPSVVERPHLEELPEQVAEDAIDWGDFGVEAVSEGTDSGISAEAAGIDWGIFPESDSKDPGGDGIDWGDDAVALQITVLEAGTQAPEGVARGPDALTLLEYTETRNQFLDELMELEIFLAQRAVELSEEADVLSVSQFQLAPAILQGQTKEKMVTMVSVLEDLIGKLTSLQLQHLFMILASPRYVDRVTEFLQQKLKQSQLLALKKELMVQKQQEALEEQAALEPKLDLLLEKTKELQKLIEADISKRYSGRPVNLMGTSL |  |
